In assay [1] the target is DRN, full length, yeast two-hybrid fusion (Arabidopsis) (UniProt Q9SAD4). Put plainly: two-hybrid; pGBKT7 (BD) and pGADT7 (AD) fusions in yeast strain Y2H Gold; tested on SD/−Leu/−Trp/−His/−Ade in dilutions of 10^−1, 10^−2 and 10^−3.
The target of the next assay is DRN-Flag (Arabidopsis) (UniProt Q9SAD4). The experiment in a line: co-IP; Arabidopsis protoplasts; PEN-140 buffer; Flag-Trap beads at 4°C for 4 h, IgG as negative control; blots with anti-HA and anti-Flag.
Assay [2] deals with DRN fused to a split YFP half (BiFC in tobacco leaves) (Arabidopsis) (UniProt Q9SAD4). Put plainly: split reporter; BiFC with split YFP in N. benthamiana leaves, Agrobacterium infiltration, 48 h, confocal microscopy.

Sequences of proteins named here, by UniProt entry; tags and fusion partners are left off.
UniProt Q9SAD4: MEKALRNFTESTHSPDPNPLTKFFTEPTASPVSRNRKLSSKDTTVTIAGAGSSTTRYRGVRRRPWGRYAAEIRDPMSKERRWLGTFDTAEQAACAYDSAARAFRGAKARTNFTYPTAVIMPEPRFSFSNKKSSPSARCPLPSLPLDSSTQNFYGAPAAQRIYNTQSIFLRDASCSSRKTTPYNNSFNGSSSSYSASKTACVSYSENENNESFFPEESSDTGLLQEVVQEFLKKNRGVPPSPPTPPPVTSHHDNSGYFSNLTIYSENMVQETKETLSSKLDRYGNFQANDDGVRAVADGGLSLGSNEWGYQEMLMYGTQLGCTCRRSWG

Results are given in words; binding and its absence hold for the method and conditions named. For part of these data: Binding seen in cells or lysates may run through a third protein. Some binding calls cover weakened binding; strength is not graded here. Where a sequence is shown, tags or fusion partners need not be part of it.

B1: N-terminus of BRM (amino acids 1–976), yeast two-hybrid fusion (domain or fragment, UniProt Q6EVK6 1-976)
chain: MQSGGSGGGPARNPAMGPAGRTASTSSAASPSSSSSSVQQQQQQQQQQQQQQQLASRQQQQQHRNSDTNENMFAYQPGGVQGMMGGGNFASSPGSMQMPQQSRNFFESPQQQQQQQQQGSSTQEGQQNFNPMQQAYIQFAMQAQHQKAQQQARMGMVGSSSVGKDQDARMGMLNMQDLNPSSQPQASSSKPSGDQFARGERQTESSSQQRNETKSHPQQQVGTGQLMPGNMIRPMQAPQAQQLVNNMGNNQLAFAQQWQAMQAWARERNIDLSHPANASQMAHILQARMAAQQKAGEGNVASQSPSIPISSQPASSSVVPGENSPHANSASDISGQSGSAKARHALSTGSFASTSSPRMVNPAMNPFSGQGRENPMYPRHLVQPTNGMPSGNPLQTSANETPVLDQNASTKKSLGPAEHLQMQQPRQLNTPTPNLVAPSDTGPLSNSSLQSGQGTQQAQQRSGFTKQQLHVLKAQILAFRRLKKGEGSLPPELLQAISPPPLELQTQRQISPAIGKVQDRSSDKTGEDQARSLECGKESQAAASSNGPIFSKEEDNVGDTEVALTTGHSQLFQNLGKEATSTDVATKEEQQTDVFPVKSDQGADSSTQKNPRSDSTADKGKAVASDGSQSKVPPQANSPQPPKDTASARKYYGPLFDFPFFTRKLDSYGSATANANNNLTLAYDIKDLICEEGAEFLSKKRTDSLKKINGLLAKNLERKRIRPDLVLRLQIEEKKLRLSDLQSRVREEVDRQQQEIMSMPDRPYRKFVRLCERQRLEMNRQVLANQKAVREKQLKTIFQWRKKLLEAHWAIRDARTARNRGVAKYHEKMLREFSKRKDDGRNKRMEALKNNDVERYREMLLEQQTNMPGDAAERYAVLSSFLTQTEDYLHKLGGKITATKNQQEVEEAANAAAVAARLQGLSEEEVRAAATCAREEVVIRNRFTEMNAPKENSSVNKYYTLAHAVNEVVVRQPSML
On to B1, for which the binding result in assay [1] was “binds”.

B2: BRM-3×HA (domain or fragment, UniProt Q6EVK6 1-976)
chain: B1 chain
With B2, the binding entry with DRN-Flag (Arabidopsis) was “binds”.

B3: BRM1-976 fused to the C-terminal YFP half (BiFC in tobacco leaves) (domain or fragment, UniProt Q6EVK6 1-976)
chain: B1 chain
As for B3, the binding result in assay [2] was “binds”.
